Source: PubChem BioAssay AID1347075 (National Center for Advancing Translational Sciences (NCATS), 2019)
Hit rate of the full screen: of about 400,000 compounds, about 5,500 (1.4%) were called active. The inconclusive results got no clear call from the source; some entries with a clear call stand among them for comparison. Calls follow the shape of the dose curve; as a rule, active = well fitted cell-killing curve with a large enough effect; inconclusive = small, poorly fitted or top-dose-only effect, or effect the other way; inactive = flat fitted curve, though single readings scatter. Potencies beside an inconclusive call are fits to weak or partial responses and may not hold up.

Experiment: qHTS assay for MDR1-selective chemotherapeutics: Primary screen using the parental adenocarcinoma cell KB-3-1; also: nearly all actives have a fitted effect of over 60% in size
Details: KB-3-1 viability, CellTiter-Glo ATP luminescence, 72 h; activity change, negative = cytotoxic: at 46.1 µM (top of the series)
Method in brief: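 Here the drug-naive KB-3-1 line serves as comparator for MDR sub-line selectivity; cells received compound titrations, 72 h at 37 °C, then CellTiter-Glo readout.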
% is scaled to controls: 0 for no effect and ±100 for the full control effect; potency is read from the fitted curve at half-maximal effect.

| SMILES | Potency | activity change, negative = cytotoxic |
| --- | --- | --- |
| CC(=O)N1CCC2(CC1)C/C(=N\NC(=S)Nc1ccc(C)cc1)c1cc(O)ccc1O2 | inconclusive: 29.1 µM [cytotoxic, single point] |  |
| O=C(N/N=C/c1nn(-c2ccccc2)cc1-c1ccccc1)c1ccncc1 | inconclusive: 5.8 µM [rising, full curve] |  |
| Cc1cc2oc(=O)cc(CN3CCN(Cc4ccccc4)CC3)c2cc1Cl | inconclusive: 29.1 µM [cytotoxic, single point] |  |
| COc1ccccc1CNC(=O)Cn1c(=O)oc2cc(S(=O)(=O)N3CCC(C)CC3)ccc21 | active: 18.4 µM |  |
| COc1cccc(CNCCSc2nnnn2C)c1OCc1ccc(Cl)cc1Cl | inconclusive: 18.4 µM [cytotoxic, partial curve, poor fit] |  |
| Nc1c(N(CCO)C(=O)C2CCCC2)c(=O)[nH]c(=O)n1Cc1ccccc1 | inconclusive: 0.164 µM [rising, full curve] |  |
| Cc1ccc(C2CCN(C(=S)Nc3cccc(Cl)c3)C2)cc1 (centres undefined) |  | inactive: 3.93% |
| c1cnc(N2CCN(c3nc4ccccc4n4cnnc34)CC2)nc1 | inconclusive: 1.03 µM [rising, full curve, poor fit] |  |
| COc1cccc(NC(=O)COC(=O)c2ccccc2SCC(=O)N2CCCC2)c1 | inconclusive: 16.4 µM [rising, single point] |  |
| COc1ccc(C2c3cccn3CCN2S(=O)(=O)c2ccccc2[N+](=O)[O-])cc1OC (centres undefined) | inconclusive: 25.9 µM [cytotoxic, single point] |  |
| CC(CNC(=O)Cn1ccc2cc(S(=O)(=O)N3CCCCC3)ccc21)c1ccccc1 (centres undefined) |  | inactive: -7.01% |
| O=C(NCc1ccccc1)c1nnc(Cc2cccc(F)c2)o1 |  | inactive: 19.5% |
| COc1cccc(C(O)c2nc(-c3ccccc3C)cs2)c1 (centres undefined) |  | inactive: -0.281% |
| Cc1cc(C(=O)NNc2ccc(Cl)cc2)no1 | inconclusive: 20.6 µM [cytotoxic, single point] |  |
| Cc1cc2nn(-c3ccc(F)cc3)nc2cc1NC(=O)c1ccc(OC(C)C)cc1 | inconclusive: 0.103 µM [rising, full curve] |  |
| CC(CC(=O)Nc1ccc2c(c1)c(=O)n(C)n2-c1ccccc1F)c1ccccc1 (centres undefined) | inconclusive: 18.4 µM [cytotoxic, single point] |  |
| Clc1ccccc1C1SCC2Nc3ccccc3CN21 (centres undefined) | inconclusive: 32.6 µM [cytotoxic, single point] |  |
| COc1ccc(-c2csc(CCN3N=C(C)CC3=O)n2)cc1 |  | inactive: -9.02% |
| COc1ccccc1C(CC(=O)c1ccccc1)C(=O)c1ccccc1 (centres undefined) | inconclusive: 29.1 µM [cytotoxic, single point] |  |
| CC(=O)c1cc2c(s1)-c1cc(F)ccc1OC2 |  | inactive: -1.04% |
| CC(=O)c1cccc(NC(=O)c2cnn(-c3ccccc3)c2C)c1 |  | inactive: 5.55% |
| O=C(NCc1ccc(F)cc1)C1CCCN(S(=O)(=O)c2cccc3nonc23)C1 (centres undefined) |  | inconclusive: -28.1% |
| COc1cc(C2c3cc4c(cc3OC(NNC(N)=S)C2C)OCO4)cc(OC)c1OC (centres undefined) | active: 1.03 µM |  |
| O=C(c1ccc(Oc2ccc(C(F)(F)F)cc2[N+](=O)[O-])cc1)N1CCOCC1 | inconclusive: 25.9 µM [cytotoxic, single point] |  |
| Cc1ccc(O)c(C2=Nc3ccccc3N=C(c3ccc([N+](=O)[O-])cc3)C2)c1 | inconclusive: 25.9 µM [cytotoxic, partial curve, poor fit] |  |

| SMILES | Potency | activity change, negative = cytotoxic |
| --- | --- | --- |
| C/C(=N/NC(=O)c1nnn(-c2nonc2N)c1CSc1ccc(Cl)cc1)c1ccncc1 |  | inactive: 1.59% |
| Cc1ccc(-n2ncc3c(NCc4ccc5c(c4)OCO5)ncnc32)c(C)c1 | inconclusive: 23.1 µM [cytotoxic, partial curve, poor fit] |  |
| CC1CCC(C(C)C)C(OC(=O)C[n+]2cc(-c3ccc(Cl)cc3)n3c2CCCCC3)C1 (centres undefined) | inconclusive: 25.9 µM [cytotoxic, single point] |  |
| Cc1ccc(C2=NC(C(F)(F)F)(C(F)(F)F)c3c(n(-c4ccc(F)cc4)c(=O)[nH]c3=O)N2)cc1 | active: 10.3 µM |  |
| Cc1ccc(NC(=O)CSc2nc3ccc(NC(=O)c4cccs4)cc3s2)c(C)c1 | inconclusive: 29.1 µM [cytotoxic, single point] |  |
| COc1cc(/C=N/OCC(=O)Nc2ccc(OC(F)F)cc2)ccc1OCc1ccccc1 | active: 23.1 µM |  |
| COc1cccc(Cn2c(=O)n(-c3cccc(Cl)c3C)c(=O)c3c4c(sc32)CN(C(C)=O)CC4)c1 | inconclusive: 32.6 µM [cytotoxic, partial curve, poor fit] |  |
| O=C(OCc1cc(=O)n2c(n1)sc1ccccc12)c1cccc(O)c1 | inconclusive: 11.6 µM [rising, partial curve] |  |
| CC(C)[C@H](NC(=O)N1CCn2c1nc1ccccc12)C(=O)NCCc1ccccc1 | inconclusive: 29.1 µM [cytotoxic, single point] |  |
| Cc1ccc(CNC(=O)COC(=O)c2cc(C)oc2C)cc1 |  | inactive: -1.39% |
| Cc1ccc(NC(=O)CSc2nc(-c3ccc(F)cc3)cc(C(F)(F)F)c2C#N)cc1 |  | inactive: -19.5% |
| OCCCNc1c2ccccc2nc2ccccc12 | active: 8.2 µM |  |
| CCOC(=O)CN1C(=O)S/C(=C/c2ccc(N3CCCCC3)o2)C1=O |  | inactive: -0.959% |
| O=C(NCc1ccccc1F)C(=O)NCC1OCCCN1S(=O)(=O)c1cccs1 (centres undefined) | inconclusive: 0.13 µM [cytotoxic, full curve] |  |
| Cc1ccc(C)c(Nc2cc(C)nc3ccccc23)c1 | inconclusive: 20.6 µM [cytotoxic, single point] |  |
| O=C(NC1=CC(=O)c2ccccc2C1=O)c1ccccc1 | active: 16.4 µM |  |
| COc1cc2cc(CCCOC(=O)c3ccc(C(F)(F)F)cc3)oc(=O)c2cc1OC | inconclusive: 20.6 µM [rising, partial curve, poor fit] |  |
| Cc1ccc(-n2cnc3cc(NCc4cccs4)ccc32)cc1 |  | inactive: -6.86% |
| Cc1ccccc1Cn1c(CCCNC(=O)C2CCCCC2)nc2ccccc21 |  | inactive: -13.8% |
| CCSc1nnc(NC(=O)NCC(F)(F)F)s1 |  | inactive: 11.6% |
| Cc1noc(C)c1C(=O)Nc1sc(C)c(-c2ccccc2)c1C#N | active: 13 µM |  |
| Oc1[nH]c2ccccc2c1N=Nc1ccccn1 |  | inactive: 2.96% |
| Cc1ccc(NC(=O)c2ccc3c(=O)n4c(nc3c2)CCC4)cc1S(=O)(=O)N(C)C | inconclusive: 29.1 µM [rising, partial curve, poor fit] |  |
| c1ccc(CC[n+]2ccncc2)cc1 |  | inactive: 14.5% |
| O=NN(CCc1ccncc1)c1ccc(OCc2ccccc2)cc1 |  | inactive: -19.2% |

| SMILES | Potency | activity change, negative = cytotoxic |
| --- | --- | --- |
| O=C(N/N=C/c1cnc2ccccc2n1)c1cccc(F)c1 | inconclusive: 6.51 µM [rising, partial curve, poor fit] |  |
| CC1=Nc2cc(C(=O)N3CCCC3)ccc2Sc2c(C)ccc(C)c21 | inconclusive: 7.31 µM [cytotoxic, partial curve] |  |
| C[C@]1(O)CC(=O)C=C[C@H]1Nc1ccccc1 | inconclusive: 0.731 µM [cytotoxic, full curve, poor fit] |  |
| O=C(C=Cc1ccccc1)CC(c1ccccc1)N1CCOCC1 (centres undefined) | inconclusive: 29.1 µM [cytotoxic, single point] |  |
| CCN(CC)CCOC(=O)c1ccc(NC(=O)c2ccc(Cl)c(S(=O)(=O)N3CCCCCC3)c2)cc1 | inconclusive: 16.4 µM [cytotoxic, partial curve, poor fit] |  |
| NC(=O)C1CCN(C(=O)CSCc2ccccc2Cl)CC1 |  | inactive: 24.1% |
| O=C(CC1Sc2ccccc2NC1=O)Nc1ccccc1[N+](=O)[O-] (centres undefined) |  | inactive: 2.03% |
| CCOc1cccc(-c2c(C(=O)N/N=C/c3cccs3)nnn2-c2nonc2N)c1 |  | inactive: -2.8% |
| Cc1c2cnn(CC(=O)NCc3ccccc3)c(=O)c2c(C)n1Cc1cccc(Cl)c1 | inconclusive: 1.64 µM [cytotoxic, full curve] |  |
| CCOc1cc(C(=O)Nc2ccc3c(c2)OCO3)ccc1OC(F)F |  | inactive: -0.362% |
| Cn1nc(-c2ccc(Cl)cc2)c2cc(C(=O)NCCCN3CCCC3)sc21 | inconclusive: 20.6 µM [cytotoxic, single point] |  |
| COc1cccc(CN2CCNC(=O)C2CC(=O)N(C)Cc2cnccn2)c1OC (centres undefined) |  | inactive: -1.74% |
| Cc1ccc(-c2csc(C(O)c3cccc(Cl)c3)n2)cc1C (centres undefined) |  | inactive: 0% |
| NC(=O)C1CCN(c2nnc(-c3ccc(Br)cc3)s2)CC1 |  | inactive: 19.4% |
| Cc1cc(OCC(=O)NNC(=O)c2cnccn2)cc(C)c1Cl | inconclusive: 20.6 µM [cytotoxic, partial curve, poor fit] |  |
| Cc1cc(C)cc(OCC(=O)OC/C(O)=C(\C#N)c2nc3ccccc3[nH]2)c1 | inconclusive: 16.4 µM [cytotoxic, partial curve, poor fit] |  |
| COc1ccc(C2NCCc3c2[nH]c2ccccc32)cc1COc1ccc(F)cc1 (centres undefined) | inconclusive: 29.1 µM [cytotoxic, single point] |  |
| CN(C)CCCNc1nc2sc3c(c2c(=O)n1CCc1ccccc1)CCCCC3 | inconclusive: 18.4 µM [cytotoxic, single point] |  |
| Cc1ccc(C)c(N2CCN(C(=O)Cn3cccc3)CC2)c1 | inconclusive: 23.1 µM [cytotoxic, single point] |  |
| CCCSc1nsc(NC(=O)CC)n1 |  | inactive: -7.78% |
| Cn1cc(CN2CCCC(CNC(=O)c3ccc4c(c3)OCO4)C2)c2ccccc21 (centres undefined) |  | inconclusive: -0.342% |
| O=C1c2ccsc2SCCN1Cc1c(F)cccc1Cl |  | inactive: 1.27% |
| Cc1cc(C(=O)Nc2ccc(OCc3ccccc3)cc2)c(C)o1 | inconclusive: 18.4 µM [cytotoxic, partial curve, poor fit] |  |
| COc1ccc(N2CCN(C(=O)NCc3ccc(C)cc3)CC2)cc1 | active: 0.517 µM |  |

Entries of single compounds, looked up by structure.
COc1cccc(CN2CCNC(=O)C2CC(=O)N(C)Cc2cnccn2)c1OC (centres undefined) reads activity change, negative = cytotoxic: inactive: -1.74%
NC(=O)C1CCN(C(=O)CSCc2ccccc2Cl)CC1 reads activity change, negative = cytotoxic: inactive: 24.1%
Cc1c2cnn(CC(=O)NCc3ccccc3)c(=O)c2c(C)n1Cc1cccc(Cl)c1 reads Potency: inconclusive: 1.64 µM [cytotoxic, full curve]
